{
  "source": "patent US7341721B2",
  "about": "(The Board of Trustees of the University of Arkansas, priority 2002, dated 2008)",
  "origin": "cited, not measured here",
  "system": "myeloma cell lines",
  "conditions": "ARP-1 and ARK-RS; cited from earlier work",
  "note": "At least one compound was matched to its structure with a doubt left.",
  "data": [
    {"smiles": "C[C@@H]1C[C@H]2[C@@H]3CCC4=CC(=O)C=C[C@]4(C)[C@@]3(F)[C@@H](O)C[C@]2(C)[C@@]1(O)C(=O)CO", "note": "[dexamethasone]", "values": [
      {"measurement": "sensitivity of myeloma cell lines to dexamethasone", "result": "sensitive"}
    ]}
  ]
}
